Assay results: patent US10041115B2, “3′-OH unblocked, fast photocleavable terminating nucleotides and methods for nucleic acid sequencing” (LASERGEN, INC., priority 2011, dated 2018)
Entries after “also recorded” stand apart in the source; their conditions may differ. Some entries repeat one wording, which the source may state once for all of them.

Assay: Photochemical cleavage assays of incorporated nucleotide analogs (365 nm UV light, DT50)
Assay type: physicochemical
Conditions: for transient products following brief exposure to UV light: incorporation assays, gel electrophoresis, 1 mM NaN3, no DTT
Method: As used herein, the term “DT50” refers to the amount of time required to cleavage 50% of the base analog incorporated in the primer-template complex.
To compare the rates of photochemical cleavage between the nucleotide analogs described here, a protocol was developed to deliver a daily light intensity output of 0.70±0.01 W/cm^2 to samples, see below.
The power supply was turned on for about 30 min prior to that of the lamp and recirculation bath as described by the manufacturer. The IR liquid filter was cooled to 9° C. Light intensity was determined using a model PM100 power meter (Thorlabs), a 1000 μm pinhole (Edmund Optics), a modified 0.5 mL Eppendorf tube cut in half, and a 3-axis manual translation stage (Newport), see FIG. 5. The half cut Eppendorf tube was positioned in front of the pinhole and power meter detector head to account for the geometric shape distortion of the light as it passes through a reaction solution. The translation stage was then used to align the tube/pinhole/detector device with the highest intensity from the arc beam.
To stabilize its output, the lamp was left on for one hour prior to intensity measurements. Thereafter, the measured power was adjusted by increasing the current from the power supply. In order to achieve intensity (I) of 0.70 W/cm^2, the measured power (P) was adjusted to ˜5.5 mW, according to the equation:
[formula] where r is the radius of pinhole.
The beam was then focused by placing an 0.5 mL Eppendorf tube into the sample holder, the tube of which was modified with an internal alignment card to provide reference lines for volume heights of 10 μL and 20 μL, see FIG. 5. The reference lines enabled the beam to be centered for a given reaction volume. Beam alignment was further verified by observing the mercury arc image of the lamp produced by the rear reflector. A second alignment card was placed into the rotating sample holder to view the image, which when properly aligned using the reflector would produce an inverted arc image on the arc gap itself. This step ensured that arc hotspots were not superimposed, which could cause overheating while maintaining a power output of ˜5.5 mW. The speed of the rotating sample holder was adjusted within a range of 1,200-1,350 rpm using a Nova-Strobe DA Plus stroboscope (Monarch Instrument) by adjusting the motor's torque with an adjustment screw.
Photochemical cleavage assays: Nucleotide analogs were incorporated using 10 μL reactions, as described for the PEP assays, at a final concentration of 100 nM. […] OligoTemplate-2, oligoTemplate-5, and oligoTemplate-4 each hybridized with BODIPY-FL labeled primer-1 were used for C^7-HOMedA, C^7-HOMedG, and HOMedU analogs, respectively. OligoTemplate-8 hybridized with BODIPY-FL labeled primer-3 was used to assay HOMedC analogs. Incorporated reactions were quenched with either 1 mM sodium azide solution; 1 mM sodium azide, 50 mM DTT solution; or reagents C-G (see key in FIG. 4), exposed to 365 nm ultraviolet (UV) light for various time points using our UV deprotector, and then placed on ice.

With COc1ccc([N+](=O)[O-])c([C@@H](OCc2cn([C@H]3C[C@H](O)[C@@H](COP(=O)(O)OP(=O)(O)OP(=O)(O)O)O3)c3ncnc(N)c23)C(C)(C)C)c1 [dA.VI, 7-[(S)-1-(5-methoxy-2-nitrophenyl)-2,2-dimethyl-propyloxy]methyl-7-deaza-2′-deoxyadenosine-5′-triphosphate] the “transient products following brief exposure to UV light” value was “transient products were observed”.

For COc1ccc([N+](=O)[O-])c([C@@H](OCc2cn([C@H]3C[C@H](O)[C@@H](COP(=O)(O)OP(=O)(O)OP(=O)(O)O)O3)c(=O)nc2N)C(C)(C)C)c1 [dC.VI, 5-[(S)-1-(5-methoxy-2-nitrophenyl)-2,2-dimethyl-propyloxy]methyl-2′-deoxycytidine-5′-triphosphate], the “transient products following brief exposure to UV light” value was “transient products were observed”.

For COc1ccc([N+](=O)[O-])c([C@@H](OCc2cn([C@H]3C[C@H](O)[C@@H](COP(=O)(O)OP(=O)(O)OP(=O)(O)O)O3)c3nc(N)[nH]c(=O)c23)C(C)(C)C)c1 [dG.VI, 7-[(S)-1-(5-methoxy-2-nitrophenyl)-2,2-dimethyl-propyloxy]methyl-7-deaza-2′-deoxyguanosine-5′-triphosphate], the “transient products following brief exposure to UV light” value was “but not”.

In the case of COc1ccc([N+](=O)[O-])c([C@@H](OCc2cn([C@H]3C[C@H](O)[C@@H](COP(=O)(O)OP(=O)(O)OP(=O)(O)O)O3)c(=O)[nH]c2=O)C(C)(C)C)c1 [dU.VI, 5-[(S)-1-(5-Methoxy-2-nitrophenyl)-2,2-dimethyl-propyloxy]methyl-2′-deoxyuridine-5′-triphosphate], the “transient product (TP) in the presence of DTT” value (incorporated by Therminator polymerase, 0.70 W/cm^2 365 nm light, DTT added) is reported as “Elimination of Transient Product (TP) with DTT; also recorded: DTT Eliminates the Nitroso Intermediate (TP)” and the “transient products following brief exposure to UV light” value is reported as “transient products were observed”.
